According to PMC6811503:
No constants are given. Whether binding was seen depends on the method and setting. Binding seen in cells or lysates may run through a third protein. A yes stands for co-enrichment or nearness to the bait. Other partners may have been found. Tags and fused reporters may be left off the sequences shown.

T1: Pbp1-4×FLAG (C. neoformans) (UniProt J9VND4)
T1 sequence: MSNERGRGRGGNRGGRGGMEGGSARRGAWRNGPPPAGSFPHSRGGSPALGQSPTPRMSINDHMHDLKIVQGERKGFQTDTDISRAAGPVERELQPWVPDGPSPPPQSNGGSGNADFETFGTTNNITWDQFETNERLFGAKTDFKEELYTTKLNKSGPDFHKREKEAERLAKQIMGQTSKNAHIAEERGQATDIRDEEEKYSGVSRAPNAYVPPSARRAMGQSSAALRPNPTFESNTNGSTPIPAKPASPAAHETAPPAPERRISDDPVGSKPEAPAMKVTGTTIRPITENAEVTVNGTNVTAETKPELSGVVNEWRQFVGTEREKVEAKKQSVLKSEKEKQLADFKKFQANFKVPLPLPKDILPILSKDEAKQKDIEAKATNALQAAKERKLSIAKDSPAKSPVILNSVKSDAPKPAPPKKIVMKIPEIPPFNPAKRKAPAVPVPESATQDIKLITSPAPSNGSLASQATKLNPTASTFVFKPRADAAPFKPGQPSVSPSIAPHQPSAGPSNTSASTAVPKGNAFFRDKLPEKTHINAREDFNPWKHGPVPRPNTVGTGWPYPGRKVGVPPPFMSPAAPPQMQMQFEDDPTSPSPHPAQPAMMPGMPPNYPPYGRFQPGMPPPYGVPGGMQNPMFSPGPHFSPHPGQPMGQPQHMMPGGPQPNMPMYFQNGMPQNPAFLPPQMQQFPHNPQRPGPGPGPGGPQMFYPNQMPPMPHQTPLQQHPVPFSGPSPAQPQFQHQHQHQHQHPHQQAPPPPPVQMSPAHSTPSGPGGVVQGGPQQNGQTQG


Molecular target: T1, Pbp1-4×FLAG (C. neoformans)
Experiment: affinity purification with mass spectrometry; anti-FLAG M2 affinity gel on lysate of HP181 (Pbp1-4xFLAG), untagged H99 as control; cells grown at 30°C then 1 h at 37°C; lysis buffer 50 mM Tris-HCl pH 7.5, 150 NaCl, 0.5 mM EDTA, 0.5% Triton X-100; 4°C; one Coomassie-stained band seen only with HP181 was excised, digested with trypsin and analysed by LC-MS/MS

| Binder | binding |
| --- | --- |
| Cog6 (protein, UniProt J9VWF8 1-745) MATNPNTPAPPATRTNPISLKIYKAIGTSFDDVSSREALEIASGMYGPEEPKGKGKAQSGYEAIEEDDDTLPRRRTLKGQSAAIGRKYLKQDIETSLATGSAKFLEAFAEVDKKLNVLREHMQEMQVRCDQVQSELDQANSGTKFLLERADVLRSQRASAQLRAHLITLFLSRFTLSNSELTALTSREVTIGQPLFDALDHVEKIRTDCELLLSGEEGKAQAGIDIMSLTSEQLESGYIKIHRYCQFEFRQFTRETQLEVSPVMLQAIRRLRDRPALLADAIQTLTSTRQSSILHQFLDALTRGGPGGLPRPIEIHAHDPTRYVGDMLAWVHQTTATEHEFLEGMFGVKEKKRWVGQERDGEEGEEVRMASEVLDKDLEGLSRPLKLRIQQTIKSQEGVIMAYKIANLLQFYLVTMRKTIGGKAVLVQTLQEIHDQAYIAFYETLDAQGRSLLRFLHPPDATLTPPITLRDAAQILRELLFVYSTSLVDPAERESDTDLAKLLDKAIVPCVEMCERMAEMRRGKSGGGEWERDIFMVNSLGYLEHTLEMYDFTTKTLHMLDEKIKTHVESMTFEHHGKLLEACGLAAVMRTIRTRPEDTPLSRLHATSPKALTSALSKFSTWLSTVDPSTSPHLALLSSPRLAVEIHRKALRKIYDAYGEVCERVLDKAEGYEFGETMLRRGREEVGVALGVGDGWELEEDTEQRSMEQEEQQEKGTGDQGDKEKKGIMKEEQKGQDAENTDGEA | binds |
| Puf6 (protein, UniProt J9VN98 1-688) MAPKAVQKKRSAPDAGSAPKKAKIVQSGKSSKPAAQKQSKPRSAPREREEEAKKRKKPITQGGGEENEDVSMDEGSFSDEDQEDQETERNDVEMDDGDAQEAAPEKKRLSKAEKQALHAAQPHRTTLLPSHPLLHDTLLPLWETARRADLSKEERKKAITELWEAVKGRVIEVSRGHKGGRVLQTIVKYGGKEERLGVAMELEPQWKAMMESKYSKFLMSKLIRYCPSIRPLLIPHLAPQLLNLLNHAHAVTPLSDLYELWASAKERRLLVRGFYPREVKIFDGAKQGVEVKGLEASLEDMGEGKGRERVLDAIEKTVLDVFNATQKNALGQAIFHRLVLEYVQCIYKFLDAETSSKKMHELLAAGAESFPEIVHTKDGSAVVRELIVRGNAKDRKQILQPLRKHVEALCKDGDAQMVLFTAFDCVDDTKLMGKAFVSDIVSLAPELAFDKHGRRAIFYLLTPTSTRHFIHASLTSLAESAQKSKELGTSKKGMDVRRKELLSYANEGLVKLVEEKGEEMVRDPGAGLVVQEIMLYAQGDKSAAIQTLASALTLPYPDPAPLDPNPDPTVSHPLDLSHAIRTYKLLLSGGHFDHKTQTLSIPDSSLSPAFSRAVWDALTSAEAGGAENVGRVCKGNAPFVMVELIEGMKKRGDGEEVKKILGKKGVKETVEKSVRKGTALLTEKIGEL | binds |
| Met6 (protein, UniProt J9VXF1 1-763) MVKSAVLGYPRIGVNRAMKKAIEAYWAGKISAEELQTTAKNVRKQRWESIKNAGVDTIPSGEFTLYDHLLDHSFNFGVIPERYVAQKLDPLDTYFAMGRGRQDRSKGIDVVACEMGKFFDSNYHIVKVDHSPETEFKLNNNQALSEYKEAKELGITTRPVLFGPITYLSLVRKANSAPAEFQPLDLLDKLIPVYKELLSQLKEAGVEEVQLDEPILVMDKAESQAELFKKTYEALAPVAPKITVTSAYGRVGKSIEFLKDLPVFALHLDLDREPKQLEEVVAAIKPTKLHLELGVVSGRNIWKNDLKASKALAEKAIAELGADRVSVSTSSSLLHTPISVKVENKLTAEQLSWLSFAEEKCEEVAVLAQALNGTEGAIFEQNTKDIAARREFERTSDSAVRDRVAAITEEQLKRKSPFPARREAQKKHLNLPKFPTTTIGSFPQTKEIRVARAKFSKGEITQEEYEKAMENEIKAVVDFQEKCGLDLLVHGEPERNDMVQYFGEQLNGFIFTQLGWVQSYGSRYVRPPIVVSDVSRPTPMTVKWSSYAQSLTEKPMKGMLTGPVTILNWSFPRADVSKEIQSKQLALALRDEVVDLAKAGIKAIQVDEPAIREGLPLRKADWDNYLTWAVDSFRLSTSGVEDDIQVHSHFCYSDFGDIFPSIQRLDADVISIEASKADLKLLDVFKSYGYSNEIGPGVYDIHSPRVPGEQEIKDRIAAMVKVLPADLMVVNPDCGLKTRGWKETEESLANLVAAAKWARETYA | binds |
| CNAG_00410 (protein, UniProt J9VER4 1-755) MATHTPQTNSTPAIVGEKVPLNTQALPKIVFAGRTGRILCVADIRGDYHELNRLIREHDATAVIHTGDFGFMTAESVDRMNDKILRHLIQYSPLLPPAARTQLLGIPPSAGRSALINQLNNSSVHFPLSQFPHLLSGAINFPVPVFTTWGLVEDVNVIEKFRTGEYGVQNLAILDEATSRLVEVGGVKLRLLGLGGTVADHKLFDYGEGHGSIAGAQGTMWTTALQIGELIDTAQRTFNPDETRLFVSTAPTSRNGLMTLVSNAIKADLTISCGLHFRYPVSYNEYSIHPDFESYRRKTQQAKDDFKGLFDQVRDRVFGSLDDKQTALLHKTLSAIDNVPIADDGMWANTWHWSLSDAGFGNMLLSISDSRVSAETKSSGVNFAHRTGKGPAPPTGTTISSAPSGLNSVKSFSSRPGPGPVGARPPPAQGMPPASGPLGAHGAPGAFASQGRVPVRPGMGPGFSARPPPGPRNTRQFGSNPASSMGGLSQSQMFAQAQAQAAVSGKTAAAASLVNGRKDEKNGKPEGEKGVNEEEKKEKLAANGNAIPEKIKDTDKIEEKKDANPIEKDEDQEKSQDENPWGEDKEEKKGSNPWADDISDEGEKKDEDKAEFTEDVKPKRYSLYIKGLPTPTTEEELKAVVGESGQKAIQVKIIFDQFTKQQKDFGYLDFDSEEVMNEALKASTGTIRDTPVNVSISKPTVPRYNNRQFGGPGGRGRGGFRGRGRGFGSAGPRRERGEREGSGSGNATAGGEKKA | binds |
| YHR020W (protein, UniProt J9VGR3 1-740) MLRAFFKHSRAFTTTRHHIHIMSVTDTTILDRLAQLQIAHPDVISHAPVKGAAEWKAELTLASANHATTPLTKTLLFKPKTAKSAVPTPVMVLAQENTETPSGAIGKFLELKELRLASEDLIKEVIPSAASKDDVSAFALPKPVPETLHLLLDAKLAKSEEQHAIHLTSSATTLLIKGSDIKAYLDNLVEGEGVKIIDFAELKASAPAPIEKKPAAAKEAKAEASTAVADDDRYEMAIRFKKDEDFSGWYTDVLLKGQMLDYYDISGCYILRPWSYSIWQIIQNWFDDEIKKLGVQDCYFPMFVSSARLEKEKDHIEGFAPEVAWVTKAGSSDLEEHIAIRPTSETVMYPYYAKWINSHRDLPLKLNQWNSVVRWEFKNPQPFLRTREFLWQEGHTAFLDKADADKEVLDILELYRKVYEDILAVPVIPGKKSEKEKFAGGDYTTTVEGFIPTTGRGIQAATSHHLGQNFSKMFDITVESPDKSQGRLYAYQNSWGLSTRSLGVMVMVHGDDQGLVLPPRVALQQVAIVPVGLSKGEGKNQPIYDACLKLERELVAAGIRAKADLRDGYTPGWKFNDWEMRGVPLRLELGPRDIANNSTLSVRRYDNHKAPMPLSDIANTVRTYLDDIQKSMLDRAAATFSDRLKVVTSWEDVVPTLDAKNVLVLPWCEAEECEDEIKEKSKSLANKGAAEDAKAPSAGAKSLCIPFDQKRFGEFPQGEEQKCVQCGKKAKSWTLFGRSY | binds |
| Hrb1 (protein, UniProt J9VJ75 1-549) MEDDREMRGDEPMAPEAGDRYRRDDRDRSRSRERHSSRRDEDRYRSRRRSYSRSRSRSRTRSPHRHRHRSPSRSRSRSRDRRDRDRSRSRDRGERRSYREDRHGGDHRGSGRPRSPRRGSGRYGAPRQDWEKSVGGPMNAPASEAEAHAKVSKRENRLYVGNLAYDCNYKDLANFMERGGGKVVFSEVLTTPAGQSKGCGIVEFASQEEAQRAKAELSDKPFFGRSVFIREDREETARFGAPPIPGKIGIALGEARHFLGNQQPHGFHGHGPAIPNRNLFVGNLPLQASWQDLKDLMRQAGEVIRADIGFRPDGTPKGNGTVVFLNADDAKAAIEMFNGFDWFGNVLEVREDRFAHGGAFRGRGGFRGAFFPRGGFGFRGGFRGGFRGGFMGGGMGMGHMGMNAVAGGVGAGGAAAAAGGRNFSNDLYADYNGPEGGEGMAVDQVAPSGLEPIPAEPNQQILVRNLPWSTSNEDLVELFETIGTVTLAEILYSGGQSKGEGIVQFAETADAANASEKFMGWPYGGRALDVQFNPRWHEFSASAIKVPQA | binds |
| Aco1 (protein, UniProt J9VL89 1-792) MVSSRYLVRGANSLSRQSMLAKRSMATVQSSIGDKKVEMSNLEKGKFINYQRIENNLQVVRSRLNRPLTLAEKIVYGHLDNPHEQDIERGVSYLKLRPDRVACQDATAQMAILQFMSAGLPQTAVPTSVHCDHLIQAQIGGKADLARAIDINKEVYDFLATACAKYGIGFWKPGSGIIHQIILENYAVPGLMMIGTDSHTPNAGGLGMVACGVGGADAVDVMADIPWELKAPKVIGVYLDGKMNGWTTPKDVILKVAGILTVKGGTGAIIEYHGPGVESLSCTGMATICNMGAEIGATTSLFPFNHRMGTYLKATNRPAIAQYAEEFNHNLQPDEGCEYDQRIEINLSELEPHINGPFTPDLATPLSKFAEEVKRHSWPQELKVGLIGSCTNSSYEDMSRSAHIAREAASHGLTAKSKFTITPGSEQVRATIARDGMVDDFEKVGGLVLANACGPCIGQWDRRDVKKGEANSIITSYNRNFTGRNDANPATHAFVASPDLVTAMIFAGDLTFNPMTDTLKGADGKEFKFSDPSGYELPAKGYDPGENTFQAPPADGTTVSVAVSPTSDRLQLLKPFKPWDGKDIIDARVLIKAKGKCTTDHISAGGPWLKYRGHLENISQNCLIGAINADNGEANKILNQETGEYGAVPTVAAYYRDRDIPWVVVGDENYGEGSSREHAALEPRFLGGRAVICRSFARIHETNLKKQGMLPLWFKNPADYDKISGTDKISILDLQNFKPGQDIKVELTHKDGSKEQFLTTSSINEGQWGWFKAGSALNMMASAAKARAEKQA | binds |
